Results as given in the supplement of paper PMC10849652.
The list shows a part of the results.

Amino acid sequences for entries named in this document (tags omitted). A change or cut given only in a name is not applied to a line headed by its entry.
UniProt Q5T6V5: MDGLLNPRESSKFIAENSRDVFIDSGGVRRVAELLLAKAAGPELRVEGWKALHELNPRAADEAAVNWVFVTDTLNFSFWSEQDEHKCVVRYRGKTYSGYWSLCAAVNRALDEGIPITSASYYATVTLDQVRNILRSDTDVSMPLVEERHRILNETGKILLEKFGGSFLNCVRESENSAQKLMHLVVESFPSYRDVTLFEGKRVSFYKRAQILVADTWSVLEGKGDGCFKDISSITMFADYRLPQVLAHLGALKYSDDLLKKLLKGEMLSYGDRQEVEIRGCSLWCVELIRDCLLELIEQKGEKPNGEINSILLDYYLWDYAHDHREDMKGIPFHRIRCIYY
UniProt Q9Y376: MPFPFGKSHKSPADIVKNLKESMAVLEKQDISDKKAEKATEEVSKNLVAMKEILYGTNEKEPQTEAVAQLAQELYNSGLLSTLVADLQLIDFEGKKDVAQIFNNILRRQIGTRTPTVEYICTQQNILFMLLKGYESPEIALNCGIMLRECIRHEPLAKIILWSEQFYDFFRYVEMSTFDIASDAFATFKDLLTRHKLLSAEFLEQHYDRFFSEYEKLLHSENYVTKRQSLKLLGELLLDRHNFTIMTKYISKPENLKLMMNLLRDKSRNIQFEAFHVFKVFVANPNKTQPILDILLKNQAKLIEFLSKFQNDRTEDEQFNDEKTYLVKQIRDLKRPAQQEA
UniProt P27708: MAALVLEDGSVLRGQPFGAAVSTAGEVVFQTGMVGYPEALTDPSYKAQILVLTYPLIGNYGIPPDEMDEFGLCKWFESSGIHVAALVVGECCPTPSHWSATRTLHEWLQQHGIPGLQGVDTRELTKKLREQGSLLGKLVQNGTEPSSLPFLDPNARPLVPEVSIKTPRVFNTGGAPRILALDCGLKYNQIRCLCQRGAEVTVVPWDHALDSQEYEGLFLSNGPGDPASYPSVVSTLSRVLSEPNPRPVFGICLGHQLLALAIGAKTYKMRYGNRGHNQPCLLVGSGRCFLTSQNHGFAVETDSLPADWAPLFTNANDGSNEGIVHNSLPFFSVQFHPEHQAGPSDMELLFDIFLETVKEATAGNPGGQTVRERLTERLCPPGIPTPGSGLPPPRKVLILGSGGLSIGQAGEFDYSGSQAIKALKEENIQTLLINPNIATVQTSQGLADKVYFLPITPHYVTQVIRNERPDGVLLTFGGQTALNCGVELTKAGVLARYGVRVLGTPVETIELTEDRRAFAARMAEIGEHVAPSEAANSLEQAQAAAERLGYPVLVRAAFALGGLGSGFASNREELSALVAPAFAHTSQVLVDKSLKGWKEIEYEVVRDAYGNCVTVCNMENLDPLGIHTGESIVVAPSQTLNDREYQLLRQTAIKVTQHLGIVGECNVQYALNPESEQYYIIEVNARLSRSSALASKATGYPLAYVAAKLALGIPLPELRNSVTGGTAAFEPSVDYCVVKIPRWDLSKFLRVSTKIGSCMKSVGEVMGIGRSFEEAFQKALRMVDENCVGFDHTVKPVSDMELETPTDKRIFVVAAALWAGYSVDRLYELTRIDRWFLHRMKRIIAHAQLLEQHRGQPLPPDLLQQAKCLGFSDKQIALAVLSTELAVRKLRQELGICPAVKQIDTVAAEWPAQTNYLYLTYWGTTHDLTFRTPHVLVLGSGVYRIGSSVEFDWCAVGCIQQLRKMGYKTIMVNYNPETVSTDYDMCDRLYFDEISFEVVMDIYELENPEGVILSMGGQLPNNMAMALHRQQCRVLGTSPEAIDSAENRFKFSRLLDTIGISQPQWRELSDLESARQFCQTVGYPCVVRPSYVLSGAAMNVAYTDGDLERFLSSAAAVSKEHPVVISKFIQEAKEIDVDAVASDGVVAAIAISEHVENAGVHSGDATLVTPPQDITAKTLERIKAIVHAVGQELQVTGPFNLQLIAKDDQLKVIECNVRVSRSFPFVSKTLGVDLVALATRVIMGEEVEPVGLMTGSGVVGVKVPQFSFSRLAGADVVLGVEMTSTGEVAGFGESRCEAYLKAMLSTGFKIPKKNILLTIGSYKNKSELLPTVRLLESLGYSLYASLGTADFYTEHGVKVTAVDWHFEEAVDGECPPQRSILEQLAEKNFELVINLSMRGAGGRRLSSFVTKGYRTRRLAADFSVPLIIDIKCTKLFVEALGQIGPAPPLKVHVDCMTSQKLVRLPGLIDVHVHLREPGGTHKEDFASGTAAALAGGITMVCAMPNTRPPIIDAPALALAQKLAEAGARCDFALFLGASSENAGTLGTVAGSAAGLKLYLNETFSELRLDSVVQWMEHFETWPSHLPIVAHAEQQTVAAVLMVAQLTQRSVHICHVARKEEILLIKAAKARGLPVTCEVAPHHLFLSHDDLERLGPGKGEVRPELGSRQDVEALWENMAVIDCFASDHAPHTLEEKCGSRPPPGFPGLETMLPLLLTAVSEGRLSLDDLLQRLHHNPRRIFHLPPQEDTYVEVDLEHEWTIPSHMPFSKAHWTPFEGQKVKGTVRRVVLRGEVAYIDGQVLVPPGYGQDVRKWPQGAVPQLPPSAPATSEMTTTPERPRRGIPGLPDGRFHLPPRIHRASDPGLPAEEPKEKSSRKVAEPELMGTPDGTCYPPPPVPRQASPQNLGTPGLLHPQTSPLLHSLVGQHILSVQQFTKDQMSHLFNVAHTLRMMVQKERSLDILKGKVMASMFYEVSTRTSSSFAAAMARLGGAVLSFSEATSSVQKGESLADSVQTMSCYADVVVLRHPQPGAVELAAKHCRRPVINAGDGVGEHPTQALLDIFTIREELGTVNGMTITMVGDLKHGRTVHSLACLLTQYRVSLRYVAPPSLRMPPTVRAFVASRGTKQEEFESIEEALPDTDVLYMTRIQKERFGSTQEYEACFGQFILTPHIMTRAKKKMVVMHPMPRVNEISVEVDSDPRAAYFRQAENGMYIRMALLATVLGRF
UniProt Q9NSG2: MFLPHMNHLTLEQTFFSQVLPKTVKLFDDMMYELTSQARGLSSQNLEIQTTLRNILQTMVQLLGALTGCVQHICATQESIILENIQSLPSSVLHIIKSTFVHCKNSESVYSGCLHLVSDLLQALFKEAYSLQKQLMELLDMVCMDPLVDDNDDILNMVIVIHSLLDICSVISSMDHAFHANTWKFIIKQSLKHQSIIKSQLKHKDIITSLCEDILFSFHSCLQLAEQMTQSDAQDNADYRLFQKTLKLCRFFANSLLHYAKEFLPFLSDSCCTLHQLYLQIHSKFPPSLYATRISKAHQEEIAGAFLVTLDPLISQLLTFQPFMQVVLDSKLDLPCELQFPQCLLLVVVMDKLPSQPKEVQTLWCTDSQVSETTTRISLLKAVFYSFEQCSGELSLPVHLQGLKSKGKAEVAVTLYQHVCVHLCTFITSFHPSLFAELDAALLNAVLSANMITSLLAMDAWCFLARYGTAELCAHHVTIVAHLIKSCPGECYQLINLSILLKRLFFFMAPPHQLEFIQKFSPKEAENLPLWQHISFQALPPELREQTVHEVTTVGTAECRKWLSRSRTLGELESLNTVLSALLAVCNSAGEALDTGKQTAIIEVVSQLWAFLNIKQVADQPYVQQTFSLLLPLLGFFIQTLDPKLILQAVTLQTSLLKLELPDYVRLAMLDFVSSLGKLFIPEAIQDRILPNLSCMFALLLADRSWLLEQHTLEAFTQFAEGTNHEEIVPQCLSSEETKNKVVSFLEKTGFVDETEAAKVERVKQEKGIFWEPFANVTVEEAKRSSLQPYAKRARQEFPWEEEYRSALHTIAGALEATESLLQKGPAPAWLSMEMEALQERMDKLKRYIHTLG
UniProt Q8IXQ3: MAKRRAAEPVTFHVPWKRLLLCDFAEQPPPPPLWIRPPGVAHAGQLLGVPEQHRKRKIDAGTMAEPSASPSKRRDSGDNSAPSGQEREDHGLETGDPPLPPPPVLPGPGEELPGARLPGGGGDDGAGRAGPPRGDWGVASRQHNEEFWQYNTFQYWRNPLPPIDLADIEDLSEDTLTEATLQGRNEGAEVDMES
UniProt Q9Y297: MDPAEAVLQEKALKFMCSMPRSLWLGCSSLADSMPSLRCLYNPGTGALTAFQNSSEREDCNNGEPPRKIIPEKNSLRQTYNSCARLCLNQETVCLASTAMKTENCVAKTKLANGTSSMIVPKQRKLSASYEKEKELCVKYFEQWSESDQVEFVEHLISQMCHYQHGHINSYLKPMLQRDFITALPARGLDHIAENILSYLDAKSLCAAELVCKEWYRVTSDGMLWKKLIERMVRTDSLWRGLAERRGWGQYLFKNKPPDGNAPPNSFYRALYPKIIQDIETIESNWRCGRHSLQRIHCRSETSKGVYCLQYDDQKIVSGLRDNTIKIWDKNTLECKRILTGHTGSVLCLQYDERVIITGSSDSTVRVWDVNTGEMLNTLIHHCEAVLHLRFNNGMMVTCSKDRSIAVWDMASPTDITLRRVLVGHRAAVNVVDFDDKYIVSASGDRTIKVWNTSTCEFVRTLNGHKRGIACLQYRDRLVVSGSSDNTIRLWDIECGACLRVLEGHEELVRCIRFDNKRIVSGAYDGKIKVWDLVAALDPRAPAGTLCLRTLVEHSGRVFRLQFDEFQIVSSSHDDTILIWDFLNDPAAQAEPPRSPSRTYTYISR
UniProt Q6PH81: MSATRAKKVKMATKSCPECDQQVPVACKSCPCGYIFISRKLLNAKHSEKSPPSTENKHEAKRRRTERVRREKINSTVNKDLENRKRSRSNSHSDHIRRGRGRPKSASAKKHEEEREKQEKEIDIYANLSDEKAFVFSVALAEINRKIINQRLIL
UniProt Q13555: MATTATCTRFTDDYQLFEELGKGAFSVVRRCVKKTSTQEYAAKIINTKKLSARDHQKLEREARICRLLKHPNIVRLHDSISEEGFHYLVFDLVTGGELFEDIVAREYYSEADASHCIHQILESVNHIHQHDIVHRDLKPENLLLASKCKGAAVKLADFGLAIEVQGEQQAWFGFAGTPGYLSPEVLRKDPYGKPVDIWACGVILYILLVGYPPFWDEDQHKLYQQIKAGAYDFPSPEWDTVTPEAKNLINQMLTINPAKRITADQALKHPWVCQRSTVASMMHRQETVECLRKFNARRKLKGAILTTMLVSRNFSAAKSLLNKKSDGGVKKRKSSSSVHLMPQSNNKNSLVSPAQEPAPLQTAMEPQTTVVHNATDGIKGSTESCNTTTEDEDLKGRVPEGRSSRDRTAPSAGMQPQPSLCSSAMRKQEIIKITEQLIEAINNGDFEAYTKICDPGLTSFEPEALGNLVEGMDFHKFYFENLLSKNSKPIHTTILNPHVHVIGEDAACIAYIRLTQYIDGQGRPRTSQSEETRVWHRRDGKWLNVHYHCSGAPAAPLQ
UniProt Q8TCD1: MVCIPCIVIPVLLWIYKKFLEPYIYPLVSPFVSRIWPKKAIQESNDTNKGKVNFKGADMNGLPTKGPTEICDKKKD
UniProt Q86VP6: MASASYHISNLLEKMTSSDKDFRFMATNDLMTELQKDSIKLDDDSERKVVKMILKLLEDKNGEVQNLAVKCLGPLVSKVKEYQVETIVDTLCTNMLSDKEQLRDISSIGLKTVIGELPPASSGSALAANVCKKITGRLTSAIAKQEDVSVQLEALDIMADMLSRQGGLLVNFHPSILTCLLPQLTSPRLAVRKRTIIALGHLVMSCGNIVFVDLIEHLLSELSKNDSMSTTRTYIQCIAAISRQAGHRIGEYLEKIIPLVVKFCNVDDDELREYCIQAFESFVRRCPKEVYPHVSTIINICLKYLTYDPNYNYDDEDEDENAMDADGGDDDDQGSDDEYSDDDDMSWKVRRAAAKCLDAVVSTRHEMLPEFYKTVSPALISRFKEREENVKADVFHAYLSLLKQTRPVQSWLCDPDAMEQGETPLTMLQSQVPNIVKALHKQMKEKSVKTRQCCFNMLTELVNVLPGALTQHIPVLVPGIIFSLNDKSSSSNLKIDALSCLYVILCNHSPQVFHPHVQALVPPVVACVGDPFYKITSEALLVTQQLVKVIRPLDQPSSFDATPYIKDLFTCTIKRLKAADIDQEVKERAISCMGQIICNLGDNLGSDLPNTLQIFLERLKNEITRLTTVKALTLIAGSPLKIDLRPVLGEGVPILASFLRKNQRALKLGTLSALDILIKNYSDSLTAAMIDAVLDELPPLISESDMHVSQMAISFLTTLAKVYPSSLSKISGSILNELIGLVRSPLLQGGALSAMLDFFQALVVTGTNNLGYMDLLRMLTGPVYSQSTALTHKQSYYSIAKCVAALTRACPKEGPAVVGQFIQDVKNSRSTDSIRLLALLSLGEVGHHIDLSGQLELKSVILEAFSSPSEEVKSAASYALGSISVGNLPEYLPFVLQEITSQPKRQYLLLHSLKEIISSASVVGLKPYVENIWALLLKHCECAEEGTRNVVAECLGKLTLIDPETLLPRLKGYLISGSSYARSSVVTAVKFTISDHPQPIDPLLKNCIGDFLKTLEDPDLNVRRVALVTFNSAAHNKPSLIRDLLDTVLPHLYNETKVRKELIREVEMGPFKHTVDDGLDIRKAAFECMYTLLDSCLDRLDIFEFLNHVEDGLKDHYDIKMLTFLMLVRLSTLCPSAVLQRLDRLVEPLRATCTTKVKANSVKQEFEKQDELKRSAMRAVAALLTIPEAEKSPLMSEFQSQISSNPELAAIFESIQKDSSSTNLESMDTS

Assays:
Test in all cases: log2 fold change, soluble protein after heating vs DMSO (PISA); higher = thermal stabilisation; K562 lysate, 10 uM; active = over 0.2 and 3.5 SD of the protein, either way, in both replicates (recomputed)
[1] = compound: CCCS(=O)(=O)Nc1ccc(F)c(C(=O)c2c[nH]c3ncc(-c4ccc(Cl)cc4)cc23)c1F [vemurafenib]
Method in brief: (§1)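 Quantification was by TMTpro 16plex LC-MS/MS with equalised channel sums, applied to the supernatant after 21,000xg for 90 min. Samples were crude K562 extract at 1 mg/mL protein in PBS pH 7.4 with 1 mM MgCl2, treated with 10 μM compound for 30 min, heated for 3 min across 48°C-58°C, pooled and brought to 0.5% NP-40 at 4°C. Values are log-two fold changes in thermal stability relative to solvent controls, from duplicates.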

[2] = compound: CCCS(=O)(=O)Nc1ccc(F)c(C(=O)c2c[nH]c3ncc(Cl)cc23)c1F
Method in brief: as §1

[3] = compound: CCN(CCCOc1ccc2c(Nc3cc(CC(=O)Nc4cccc(F)c4)[nH]n3)ncnc2c1)CCOP(=O)(O)O [barasertib]
Method in brief: as §1

[4] = compound: CC[C@@H]1C(=O)N(C)c2cnc(Nc3ccc(C(=O)NC4CCN(C)CC4)cc3OC)nc2N1C1CCCC1
Method in brief: as §1

[5] = compound: CC[C@@H]1C(=O)N(C)c2cnc(Nc3ccc(C(=O)N[C@H]4CC[C@H](N5CCN(CC6CC6)CC5)CC4)cc3OC)nc2N1C(C)C [volasertib]
Method in brief: as §1

[6] = compound: CCn1c(C(=O)N(C2CC2)C2CC2)cc2c3c(ncn3C)c(Nc3cc(C)n(C)n3)nc21
Method in brief: as §1

[7] = compound: CCn1cc(-c2ccnc3[nH]c(-c4cccc(CN(C)C)c4)cc23)c(-c2ccc(NC(=O)N(C)C)cc2)n1
Method in brief: as §1

[8] = compound: CN1CCC(CNc2ccc3ncc(-c4cccc(OC(F)(F)F)c4)n3n2)CC1
Method in brief: as §1

[9] = compound: CN1CCN(CCOc2cc(OC3CCOCC3)c3c(Nc4c(Cl)ccc5c4OCO5)ncnc3c2)CC1 [saracatinib]
Method in brief: as §1

[10] = compound: CN1CCN(c2nc(C3=C(c4c[nH]c5ccccc45)C(=O)NC3=O)c3ccccc3n2)CC1 [sotrastaurin]
Method in brief: as §1

| Target | log2 fold change [1] | log2 fold change [2] | log2 fold change [3] | log2 fold change [4] | log2 fold change [5] | log2 fold change [6] | log2 fold change [7] | log2 fold change [8] | log2 fold change [9] | log2 fold change [10] |
| --- | --- | --- | --- | --- | --- | --- | --- | --- | --- | --- |
| CACTIN isoform 2 (UniProt Q8WUQ7) | inactive: -0.024 | inactive: 0.048 | inactive: -0.055 | inactive: 0.039 | inactive: 0 | inactive: -0.101 | inactive: 0.116 | inactive: -0.048 | inactive: 0.025 | inactive: 0.005 |
| CAPRIN1 (UniProt Q14444) | inactive: -0.009 | inactive: -0.02 | inactive: -0.052 | inactive: 0.02 | inactive: 0.023 | inactive: -0.013 | inactive: 0.132 | inactive: -0.018 | inactive: -0.02 | inactive: -0.029 |
| CAMSAP3 isoform 2 (UniProt Q9P1Y5) | inactive: 0.009 | – | – | – | – | – | – | – | – | – |
| BZW2 (UniProt Q9Y6E2) | inactive: -0.005 | inactive: -0.009 | inactive: 0.026 | inactive: -0.036 | inactive: -0.012 | inactive: 0.021 | inactive: 0.018 | inactive: -0.044 | inactive: 0.015 | inactive: 0.012 |
| C1D (UniProt Q13901) | inactive: -0.013 | inactive: -0.008 | inactive: -0.013 | inactive: 0.034 | inactive: -0.033 | inactive: 0.012 | inactive: 0.001 | inactive: 0.04 | inactive: -0.018 | inactive: -0.017 |
| C22orf39 (UniProt Q6P5X5) | inactive: 0.13 | inactive: -0.062 | inactive: 0.133 | inactive: 0.076 | inactive: -0.253 | inactive: 0.066 | inactive: -0.074 | inactive: 0.09 | inactive: -0.06 | – |
| CAPZA1 (UniProt P52907) | inactive: 0.028 | inactive: 0.034 | inactive: -0.049 | inactive: 0.043 | inactive: 0.005 | inactive: -0.018 | inactive: -0.082 | inactive: 0.086 | inactive: 0.006 | inactive: 0.005 |
| C9orf78 (UniProt Q9NZ63) | inactive: -0.014 | inactive: -0.016 | inactive: -0.026 | inactive: 0.1 | inactive: 0.042 | inactive: 0.005 | inactive: 0.092 | inactive: -0.041 | inactive: 0.002 | inactive: 0.012 |
| C9orf64 (UniProt Q5T6V5) | inactive: 0.022 | inactive: 0.007 | inactive: -0.043 | inactive: -0.032 | inactive: -0.032 | inactive: 0.013 | inactive: -0.032 | inactive: 0.002 | inactive: -0.026 | inactive: -0.058 |
| CAMKK2 (UniProt Q96RR4) | inactive: -0.07 | inactive: -0.026 | inactive: 0.003 | inactive: 0.176 | inactive: 0.075 | inactive: 0.057 | inactive: 0.003 | inactive: 0.002 | inactive: -0.017 | inactive: 0.069 |
| CAB39 (UniProt Q9Y376) | inactive: -0.048 | inactive: -0.009 | inactive: -0.034 | inactive: -0.01 | inactive: 0.035 | inactive: 0.011 | inactive: -0.008 | inactive: 0.009 | inactive: 0.009 | inactive: 0.01 |
| CANT1 (UniProt Q8WVQ1) | inactive: 0.008 | inactive: -0.002 | inactive: 0.031 | inactive: -0.022 | inactive: -0.028 | inactive: -0.014 | inactive: 0.016 | inactive: 0.01 | inactive: 0.006 | inactive: -0.026 |
| C18orf25 isoform 2 (UniProt Q96B23) | inactive: -0.01 | inactive: 0.027 | inactive: -0.034 | inactive: 0.067 | inactive: -0.021 | inactive: -0.047 | inactive: -0.234 | inactive: 0.037 | inactive: -0.037 | – |
| C1orf50 (UniProt Q9BV19) | inactive: 0.013 | inactive: -0.025 | inactive: 0.157 | inactive: 0.016 | inactive: 0.102 | inactive: 0.006 | inactive: -0.118 | inactive: -0.072 | inactive: 0.011 | inactive: -0.016 |
| CAD (UniProt P27708) | inactive: 0.005 | inactive: 0.026 | inactive: -0.004 | inactive: -0.037 | inactive: -0.069 | inactive: 0.012 | inactive: -0.085 | inactive: 0.003 | inactive: -0.004 | inactive: 0.003 |
| C1orf112 (UniProt Q9NSG2) | inactive: 0 | inactive: 0.006 | inactive: -0.04 | inactive: -0.065 | inactive: 0.034 | inactive: 0.037 | inactive: 0.171 | inactive: -0.059 | inactive: 0.065 | inactive: 0.025 |

| Target | log2 fold change [1] | log2 fold change [2] | log2 fold change [3] | log2 fold change [4] | log2 fold change [5] | log2 fold change [6] | log2 fold change [7] | log2 fold change [8] | log2 fold change [9] | log2 fold change [10] |
| --- | --- | --- | --- | --- | --- | --- | --- | --- | --- | --- |
| C12orf65 (UniProt Q9H3J6) | inactive: -0.009 | inactive: 0.011 | inactive: -0.017 | inactive: -0.024 | inactive: -0.011 | inactive: -0.036 | inactive: 0.01 | inactive: -0.1 | inactive: 0.038 | inactive: 0.009 |
| C15orf40 (UniProt Q8WUR7) | inactive: 0.005 | inactive: -0.043 | inactive: 0.001 | inactive: 0.078 | inactive: -0.054 | inactive: -0.011 | inactive: -0.038 | inactive: 0.047 | inactive: 0.003 | inactive: -0.039 |
| CABIN1 (UniProt Q9Y6J0) | inactive: -0.086 | inactive: -0.042 | inactive: 0.277 | inactive: 0.077 | inactive: -0.089 | inactive: 0.031 | inactive: -0.113 | inactive: 0.066 | inactive: 0.013 | – |
| C2orf49 (UniProt Q9BVC5) | inactive: -0.021 | inactive: 0.005 | inactive: -0.089 | inactive: 0.042 | inactive: -0.003 | inactive: 0.011 | inactive: -0.076 | inactive: 0.024 | inactive: -0.005 | inactive: 0.01 |
| C8orf37 (UniProt Q96NL8) | inactive: 0.081 | inactive: -0.061 | inactive: -0.062 | inactive: 0.058 | inactive: -0.043 | inactive: -0.075 | inactive: 0.225 | inactive: 0.166 | inactive: -0.06 | inactive: 0.072 |
| C9orf40 (UniProt Q8IXQ3) | inactive: 0.053 | inactive: 0.032 | inactive: 0.107 | inactive: 0.071 | inactive: 0.012 | inactive: 0.033 | inactive: -0.035 | inactive: 0.014 | inactive: 0.03 | inactive: -0.007 |
| C2orf69 (UniProt Q8N8R5) | inactive: -0.069 | inactive: 0.027 | inactive: 0.016 | inactive: 0.007 | inactive: 0.021 | inactive: 0.025 | inactive: -0.077 | inactive: 0.146 | inactive: 0.001 | inactive: 0.023 |
| BTRC (UniProt Q9Y297) | inactive: -0.002 | inactive: 0.023 | inactive: 0.052 | inactive: 0.076 | inactive: -0.041 | inactive: -0.088 | inactive: 0.073 | inactive: 0.067 | – | – |
| C2orf68 (UniProt Q2NKX9) | inactive: -0.014 | inactive: 0.048 | inactive: -0.018 | inactive: 0.038 | inactive: 0.007 | inactive: 0.069 | inactive: -0.016 | inactive: -0.012 | inactive: 0.057 | inactive: 0.081 |
| C1orf198 (UniProt Q9H425) | inactive: 0.059 | inactive: 0.004 | inactive: -0.001 | inactive: 0.094 | inactive: 0.024 | inactive: 0.092 | inactive: -0.096 | inactive: 0.052 | inactive: -0.014 | inactive: 0.005 |
| C16orf87 (UniProt Q6PH81) | inactive: 0.032 | inactive: 0.11 | inactive: -0.054 | inactive: 0.037 | inactive: 0.004 | inactive: 0.062 | inactive: 0.417 | inactive: -0.048 | inactive: 0.139 | inactive: -0.046 |
| CAMK2G isoform 8 (UniProt Q13555) | inactive: 0.067 | inactive: -0.03 | inactive: 0.058 | inactive: 0.102 | inactive: -0.033 | inactive: -0.079 | inactive: -0.001 | inactive: 0.022 | inactive: 0.086 | active: 0.345 |
| C15orf41 (UniProt Q9Y2V0) | inactive: 0.151 | inactive: 0.005 | inactive: 0.095 | inactive: -0.089 | inactive: 0.041 | inactive: -0.049 | inactive: -0.143 | inactive: 0.037 | inactive: -0.018 | inactive: -0.016 |
| C18orf32 (UniProt Q8TCD1) | inactive: 0.164 | inactive: -0.044 | inactive: -0.019 | inactive: 0.125 | inactive: 0.054 | inactive: 0.054 | inactive: -0.073 | inactive: 0 | inactive: 0.006 | inactive: -0.112 |
| CAND1 (UniProt Q86VP6) | inactive: 0.012 | inactive: 0 | inactive: -0.016 | inactive: 0.025 | inactive: 0.018 | inactive: -0.021 | inactive: -0.106 | inactive: 0.08 | inactive: -0.019 | inactive: -0.011 |

2 entries from above, bar-delimited.
Target | log2 fold change [1] | log2 fold change [2] | log2 fold change [3] | log2 fold change [4] | log2 fold change [5] | log2 fold change [6] | log2 fold change [7] | log2 fold change [8] | log2 fold change [9] | log2 fold change [10]
C1orf198 (UniProt Q9H425) | inactive: 0.059 | inactive: 0.004 | inactive: -0.001 | inactive: 0.094 | inactive: 0.024 | inactive: 0.092 | inactive: -0.096 | inactive: 0.052 | inactive: -0.014 | inactive: 0.005
C16orf87 (UniProt Q6PH81) | inactive: 0.032 | inactive: 0.11 | inactive: -0.054 | inactive: 0.037 | inactive: 0.004 | inactive: 0.062 | inactive: 0.417 | inactive: -0.048 | inactive: 0.139 | inactive: -0.046
